# According to the supplement of paper PMC3334620:
# Whole data set: some 33,000 sequences, median “E-score (-0.5 to 0.5)” near -0.015, cut for the highest 2% near 0.3. The list shows a part of the results.
# Molecular target: T1, Abf1 (UniProt P14164)
# T1 sequence: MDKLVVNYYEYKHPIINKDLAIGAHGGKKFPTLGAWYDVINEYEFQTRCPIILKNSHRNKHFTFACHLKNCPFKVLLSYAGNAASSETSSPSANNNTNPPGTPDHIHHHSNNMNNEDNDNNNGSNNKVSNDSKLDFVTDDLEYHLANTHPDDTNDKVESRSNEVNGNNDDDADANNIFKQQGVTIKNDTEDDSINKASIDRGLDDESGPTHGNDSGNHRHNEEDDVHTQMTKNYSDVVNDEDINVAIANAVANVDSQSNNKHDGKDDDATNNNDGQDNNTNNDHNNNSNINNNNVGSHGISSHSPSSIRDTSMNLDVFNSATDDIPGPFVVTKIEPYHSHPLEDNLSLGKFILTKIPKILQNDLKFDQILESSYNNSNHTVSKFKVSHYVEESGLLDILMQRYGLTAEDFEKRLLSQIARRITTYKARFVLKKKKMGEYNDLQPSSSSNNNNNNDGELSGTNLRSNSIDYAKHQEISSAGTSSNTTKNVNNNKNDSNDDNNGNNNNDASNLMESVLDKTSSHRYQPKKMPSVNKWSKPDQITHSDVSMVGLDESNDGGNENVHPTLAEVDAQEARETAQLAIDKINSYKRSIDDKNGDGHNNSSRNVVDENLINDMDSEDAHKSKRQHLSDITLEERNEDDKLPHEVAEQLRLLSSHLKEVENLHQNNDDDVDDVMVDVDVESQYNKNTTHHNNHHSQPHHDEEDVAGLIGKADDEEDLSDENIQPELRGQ
# Assay: PBM E-score (8-mer binding enrichment) (E-score (-0.5 to 0.5)); higher = stronger / more preferred TF binding
# Settings: protein concentration: 200 nM; construct: GST-full length
# Summary of the method: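 Full-length yeast transcription factors or their DNA-binding domains, GST-tagged and expressed with PURExpress, were applied at about 100-200 nM to universal all-10-mer Agilent arrays. These arrays had been made double-stranded by primer extension on fresh or once-stripped slides. Detection used fluorescent anti-GST, normalisation used masliner, and E-scores for ungapped eight-base words pooled with reverse complements came from the Universal PBM Analysis Suite.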
row,Sequence,PBM E-score
1,TAAACATA,0.167
2,CCGGTCGA,-0.327
3,AAACATAA,-0.0197
4,ATAGGGAG,-0.204
5,ATAATCCA,0.089
6,ATCTACAT,0.096
7,GGGTACGA,0.0568
8,ATATCCAG,0.0839
9,CCCACTTC,-0.0244
10,AGGGAACC,0.0245
11,CGATCCTA,0.0743
12,GAGCTCGC,0.0785
13,GAGTGTAA,-0.12
14,ACAACGCG,-0.00096
15,AAGGCGGC,-0.00603
16,AGGGCAAT,-0.125
17,AAGGAAAA,-0.0301
18,CCAGTATC,0.133
19,CCTTGAGA,-0.0941
20,CTATGCGA,-0.15
21,CCAATCAA,-0.0817
22,AGGGTAAA,-0.0734
23,ACATAGTA,0.115
24,AACTTAAT,0.166

row,Sequence,PBM E-score
1,AACATATG,-0.154
2,GGCTAGCA,-0.32
3,CCCGTGCG,0.054
4,CATGACCA,0.123
5,ATAATCAT,0.326
6,ACCAGATC,0.0219
7,ATGACGCC,0.0697
8,ACCTACCT,0.0114
9,ATCGAACG,-0.0626
10,AAATATGA,0.0696
11,CTGAGGAC,-0.0365
12,GGTGTCGA,-0.139
13,ACATCTGC,-0.0916
14,ACTACGTC,-0.114
15,GATCGTCC,0.194
16,GAATGGGA,-0.287
17,ATATCTTC,0.191
18,CTTGCCCC,-0.278
19,TTGTTAAA,0.0302
20,CATAATCC,-0.0536
21,AGAACAGG,-0.0559
22,GCGCAGTA,0.0522
23,AAGCACCC,-0.201
24,CCGAATTA,-0.00111

row,Sequence,PBM E-score
1,CACGGTTC,0.154
2,CAAATTGA,-0.22
3,AAGCTGCA,-0.00249
4,AAGCCTCT,-0.257
5,AAGGTGAG,0.0161
6,TACGAACA,0.351
7,CTACTGCC,7e-05
8,GCCCTTGA,-0.034
9,CGGAAGAA,-0.158
10,CAACCTCA,-0.0877
11,AAAAACTG,-0.0716
12,CGGCAGGA,-0.112
13,GAGGCTAA,-0.0534
14,ACGCTAGT,0.043
15,CGGTGGCC,-0.133
16,CCCGCAAC,-0.128
17,TAGATGAA,-0.0038
18,AGACGCGG,-0.19
19,GCCACTTA,-0.0218
20,TACGACTA,0.152
21,ATCTATTG,-0.00198
22,GGGAATGA,0.0497
23,GAGGTGCC,-0.0278
24,CAGCATAC,-0.12

row,Sequence,PBM E-score
1,CCCCACTA,-0.317
2,CAGAGCTC,-0.00666
3,GCACCAAC,-0.151
4,GCGCGACA,0.0642
5,AGGCACAA,-0.132
6,AGAGATCT,-0.0585
7,GAACCGTC,0.156
8,ACGGGCTC,-0.064
9,GAGTTACC,0.0669
10,ACGGTTCA,0.104
11,AAATCCAA,0.0385
12,ATAACTGG,0.03
13,GAAGGAGA,-0.127
14,CAGAGAGA,-0.117
15,CTAGCAAG,-0.2
16,GGAGAACA,-0.107
17,CAAACCTG,-0.122
18,GGTAAAAC,-0.16
19,ACAATCCG,0.0483
20,CACGTATC,0.143
21,CAGGGTCA,-0.127
22,ATGGAGGA,0.105

# Three entries picked at random from those above, as already listed:
row,Sequence,PBM E-score
11,AAATCCAA,0.0385
7,GAACCGTC,0.156
6,AGAGATCT,-0.0585
